Some of the results follow. Many values rest on one well or one pass, so single values are uncertain.

The test system of this assay is C6. In words: cell mass (Coomassie absorbance) after combination of library compound with HMBA, relative to vehicle control (fraction); higher = more remaining cells (less growth inhibition).
For `Cc1cnc(-c2cnc(NCCNc3ccc(C#N)cn3)nc2-c2ccc(Cl)cc2Cl)[nH]1` + CC(=O)NCCCCCCNC(C)=O [hexamethylene bisacetamide], the cell mass was 0.357.

Consider `CCCS(=O)(=O)Nc1ccc(F)c(C(=O)c2c[nH]c3ncc(Cl)cc23)c1F` + CC(=O)NCCCCCCNC(C)=O [hexamethylene bisacetamide], for which the cell mass came to 0.312. As to `CC1=C(C(=O)Nc2cc3cn[nH]c3cc2F)C(c2ccc(C(F)(F)F)cc2)CC(=O)N1` (stereo not drawn) + CC(=O)NCCCCCCNC(C)=O [hexamethylene bisacetamide], the cell mass was 0.39. The figure for `Cc1cnc(NC(=O)Nc2cc(Br)c(C)cc2OC[C@@H]2CNCCO2)cn1` + CC(=O)NCCCCCCNC(C)=O [hexamethylene bisacetamide] is 0.453.

For the compound `C=CC(=O)Nc1cccc(Oc2nc(Nc3ccc(N4CCN(C)CC4)cc3)ncc2Cl)c1` + CC(=O)NCCCCCCNC(C)=O [hexamethylene bisacetamide], the cell mass came to 0.854. The figure for `Cc1ccc2c(=O)c3cccc(CC(=O)O)c3oc2c1C` + CC(=O)NCCCCCCNC(C)=O [hexamethylene bisacetamide] is 0.498; for `CCN(CCO)CCCOc1ccc2c(Nc3cc(CC(=O)Nc4cccc(F)c4)[nH]n3)ncnc2c1` [AZD1152-HQPA(Barasertib)] + CC(=O)NCCCCCCNC(C)=O [hexamethylene bisacetamide] it is 0.619; for `Cc1c(CN2CCN(C(=O)[C@H](C)O)CC2)sc2c(N3CCOCC3)nc(-c3cnc(N)nc3)nc12` + CC(=O)NCCCCCCNC(C)=O [hexamethylene bisacetamide] it is 0.558.
